These are yes or no findings as the source states them, for the method shown. In cells and extracts the contact can be indirect. Some results given as binding are weak or reduced against the parent protein; the word gives no strength.
T1: CXCR2 of mouse DRG neurons (mouse (endogenous in DRG)) (UniProt P35343)
T1 sequence: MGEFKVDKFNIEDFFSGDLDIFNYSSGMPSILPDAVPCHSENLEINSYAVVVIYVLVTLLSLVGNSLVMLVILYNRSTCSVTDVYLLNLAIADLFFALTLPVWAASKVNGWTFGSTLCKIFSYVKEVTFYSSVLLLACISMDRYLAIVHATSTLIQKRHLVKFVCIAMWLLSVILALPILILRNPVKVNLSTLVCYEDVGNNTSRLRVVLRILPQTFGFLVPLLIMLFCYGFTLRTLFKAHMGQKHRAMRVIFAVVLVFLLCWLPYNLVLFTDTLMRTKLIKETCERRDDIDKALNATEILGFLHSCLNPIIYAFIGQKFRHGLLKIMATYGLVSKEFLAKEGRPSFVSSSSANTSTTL

Chains of the proteins cited; added tags and fusions are not shown.
UniProt Q8BLA8: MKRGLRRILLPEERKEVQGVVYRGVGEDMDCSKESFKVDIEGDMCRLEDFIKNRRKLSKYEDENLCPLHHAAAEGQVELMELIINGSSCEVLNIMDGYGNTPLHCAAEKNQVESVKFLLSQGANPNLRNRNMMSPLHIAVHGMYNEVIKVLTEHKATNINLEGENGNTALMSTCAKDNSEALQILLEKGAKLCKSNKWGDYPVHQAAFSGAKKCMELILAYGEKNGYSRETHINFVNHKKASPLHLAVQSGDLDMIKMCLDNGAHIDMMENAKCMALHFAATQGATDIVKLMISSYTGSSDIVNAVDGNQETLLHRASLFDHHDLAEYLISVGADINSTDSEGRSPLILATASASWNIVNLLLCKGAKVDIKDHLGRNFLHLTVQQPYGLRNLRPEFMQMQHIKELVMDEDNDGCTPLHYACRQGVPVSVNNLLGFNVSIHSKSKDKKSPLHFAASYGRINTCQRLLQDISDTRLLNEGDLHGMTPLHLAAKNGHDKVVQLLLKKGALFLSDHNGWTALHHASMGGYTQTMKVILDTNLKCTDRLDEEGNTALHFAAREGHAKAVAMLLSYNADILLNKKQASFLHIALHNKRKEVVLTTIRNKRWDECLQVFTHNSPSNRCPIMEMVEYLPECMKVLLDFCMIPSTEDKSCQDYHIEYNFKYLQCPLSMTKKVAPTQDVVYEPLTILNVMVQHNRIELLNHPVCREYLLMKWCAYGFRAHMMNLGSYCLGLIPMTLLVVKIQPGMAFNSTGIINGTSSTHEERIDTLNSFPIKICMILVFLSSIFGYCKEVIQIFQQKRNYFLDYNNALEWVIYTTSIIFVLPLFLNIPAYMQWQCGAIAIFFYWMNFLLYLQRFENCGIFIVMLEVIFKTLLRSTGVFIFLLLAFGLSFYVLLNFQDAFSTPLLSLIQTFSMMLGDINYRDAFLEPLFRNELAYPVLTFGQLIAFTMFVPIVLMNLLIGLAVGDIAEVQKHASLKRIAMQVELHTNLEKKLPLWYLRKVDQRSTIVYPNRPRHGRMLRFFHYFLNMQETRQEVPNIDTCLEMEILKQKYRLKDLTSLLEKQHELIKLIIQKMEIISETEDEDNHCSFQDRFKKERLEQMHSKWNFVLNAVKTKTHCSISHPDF


Experiments:
[1] = target: T1, CXCR2 of mouse DRG neurons (mouse (endogenous in DRG)); assay: co-IP; lysate of ipsilateral L3-L5 DRG of control and MSU (gout model) mice; 50 mM Tris, 150 mM NaCl, 1 mM EDTA, 0.2% Triton X-100; precipitated with 1 μg anti-CXCR2 or anti-TRPA1 antibody at 4 °C overnight, Protein A + G magnetic beads; immunoblot
[2] = target: TRPA1 of mouse DRG (mouse (endogenous in DRG)) (UniProt Q8BLA8); assay: as above

Molecule | binding [1] | binding [2]
TRPA1 of mouse DRG (from UniProt Q8BLA8 1-1125) | binds | –
CXCR2 of mouse DRG neurons (receptor, UniProt P35343 1-359) MGEFKVDKFNIEDFFSGDLDIFNYSSGMPSILPDAVPCHSENLEINSYAVVVIYVLVTLLSLVGNSLVMLVILYNRSTCSVTDVYLLNLAIADLFFALTLPVWAASKVNGWTFGSTLCKIFSYVKEVTFYSSVLLLACISMDRYLAIVHATSTLIQKRHLVKFVCIAMWLLSVILALPILILRNPVKVNLSTLVCYEDVGNNTSRLRVVLRILPQTFGFLVPLLIMLFCYGFTLRTLFKAHMGQKHRAMRVIFAVVLVFLLCWLPYNLVLFTDTLMRTKLIKETCERRDDIDKALNATEILGFLHSCLNPIIYAFIGQKFRHGLLKIMATYGLVSKEFLAKEGRPSFVSSSSANTSTTL | – | binds

— publication PMC11021482
